Test results taken from article PMC9705295.
These are yes or no findings as the source states them, for the method shown. In cells and extracts the contact can be indirect. Some results given as binding are weak or reduced against the parent protein; the word gives no strength. For some of these results: Sequences can lack the tags named with a protein.

The chains behind the UniProt entries cited, without tags or fusion partners.
UniProt Q60974: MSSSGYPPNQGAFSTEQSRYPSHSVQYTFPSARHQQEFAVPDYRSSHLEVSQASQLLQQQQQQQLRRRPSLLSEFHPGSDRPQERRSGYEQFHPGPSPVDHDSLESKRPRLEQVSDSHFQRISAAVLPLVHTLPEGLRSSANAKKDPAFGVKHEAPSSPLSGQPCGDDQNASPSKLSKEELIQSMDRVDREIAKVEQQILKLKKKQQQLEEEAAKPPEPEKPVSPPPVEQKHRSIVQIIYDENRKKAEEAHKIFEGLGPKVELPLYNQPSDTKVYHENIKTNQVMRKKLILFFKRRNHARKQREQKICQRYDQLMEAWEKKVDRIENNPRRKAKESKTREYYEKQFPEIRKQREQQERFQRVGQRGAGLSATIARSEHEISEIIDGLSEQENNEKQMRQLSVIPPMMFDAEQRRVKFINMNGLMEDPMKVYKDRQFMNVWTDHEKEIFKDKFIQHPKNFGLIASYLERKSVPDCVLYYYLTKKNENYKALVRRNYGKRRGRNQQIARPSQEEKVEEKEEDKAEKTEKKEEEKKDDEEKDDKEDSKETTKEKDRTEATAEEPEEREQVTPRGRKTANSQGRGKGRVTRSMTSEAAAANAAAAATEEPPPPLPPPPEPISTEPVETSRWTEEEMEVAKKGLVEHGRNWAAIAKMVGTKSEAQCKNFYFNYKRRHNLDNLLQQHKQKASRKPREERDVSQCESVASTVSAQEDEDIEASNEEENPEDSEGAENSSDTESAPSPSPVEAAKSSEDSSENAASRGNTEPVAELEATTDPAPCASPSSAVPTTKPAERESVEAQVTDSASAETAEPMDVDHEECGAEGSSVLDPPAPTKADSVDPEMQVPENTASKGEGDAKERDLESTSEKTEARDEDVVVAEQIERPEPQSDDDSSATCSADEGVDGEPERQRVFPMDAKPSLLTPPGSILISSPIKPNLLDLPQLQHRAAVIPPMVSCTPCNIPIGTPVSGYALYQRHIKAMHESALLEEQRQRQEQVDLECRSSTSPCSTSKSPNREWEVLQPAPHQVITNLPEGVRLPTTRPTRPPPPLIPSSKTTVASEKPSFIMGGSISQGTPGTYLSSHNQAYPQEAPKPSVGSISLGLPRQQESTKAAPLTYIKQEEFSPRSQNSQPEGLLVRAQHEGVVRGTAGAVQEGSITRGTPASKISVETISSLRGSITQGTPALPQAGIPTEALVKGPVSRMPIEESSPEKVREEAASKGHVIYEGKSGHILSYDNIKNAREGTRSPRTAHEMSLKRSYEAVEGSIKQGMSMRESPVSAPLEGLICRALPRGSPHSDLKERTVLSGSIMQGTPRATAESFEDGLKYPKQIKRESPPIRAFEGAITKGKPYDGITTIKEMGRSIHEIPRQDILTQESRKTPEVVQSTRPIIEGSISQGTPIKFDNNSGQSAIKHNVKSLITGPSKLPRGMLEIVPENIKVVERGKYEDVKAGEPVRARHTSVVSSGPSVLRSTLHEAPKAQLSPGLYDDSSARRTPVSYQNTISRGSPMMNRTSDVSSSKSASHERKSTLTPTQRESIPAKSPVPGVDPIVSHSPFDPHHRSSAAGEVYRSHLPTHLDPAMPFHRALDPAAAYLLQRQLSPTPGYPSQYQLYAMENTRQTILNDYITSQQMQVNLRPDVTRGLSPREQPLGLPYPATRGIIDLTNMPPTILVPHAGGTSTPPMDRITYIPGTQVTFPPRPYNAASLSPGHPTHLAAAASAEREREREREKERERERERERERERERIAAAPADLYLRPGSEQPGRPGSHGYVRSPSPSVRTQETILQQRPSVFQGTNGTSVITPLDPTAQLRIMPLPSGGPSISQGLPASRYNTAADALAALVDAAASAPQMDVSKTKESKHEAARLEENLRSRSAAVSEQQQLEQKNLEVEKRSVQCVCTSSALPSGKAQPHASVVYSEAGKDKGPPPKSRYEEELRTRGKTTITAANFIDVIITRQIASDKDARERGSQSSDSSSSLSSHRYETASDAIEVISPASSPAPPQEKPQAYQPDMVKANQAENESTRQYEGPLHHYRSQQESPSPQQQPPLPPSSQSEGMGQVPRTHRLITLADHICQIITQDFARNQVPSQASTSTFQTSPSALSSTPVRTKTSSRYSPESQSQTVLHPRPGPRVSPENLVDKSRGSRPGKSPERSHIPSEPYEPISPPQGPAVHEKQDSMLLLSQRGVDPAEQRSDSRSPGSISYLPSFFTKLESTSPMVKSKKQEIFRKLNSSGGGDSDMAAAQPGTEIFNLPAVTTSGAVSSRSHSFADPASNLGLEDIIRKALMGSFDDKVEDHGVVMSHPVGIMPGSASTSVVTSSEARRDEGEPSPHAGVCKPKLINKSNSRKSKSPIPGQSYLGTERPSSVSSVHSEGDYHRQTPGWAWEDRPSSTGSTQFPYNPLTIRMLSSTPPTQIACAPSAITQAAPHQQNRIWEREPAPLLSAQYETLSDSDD
UniProt O09106: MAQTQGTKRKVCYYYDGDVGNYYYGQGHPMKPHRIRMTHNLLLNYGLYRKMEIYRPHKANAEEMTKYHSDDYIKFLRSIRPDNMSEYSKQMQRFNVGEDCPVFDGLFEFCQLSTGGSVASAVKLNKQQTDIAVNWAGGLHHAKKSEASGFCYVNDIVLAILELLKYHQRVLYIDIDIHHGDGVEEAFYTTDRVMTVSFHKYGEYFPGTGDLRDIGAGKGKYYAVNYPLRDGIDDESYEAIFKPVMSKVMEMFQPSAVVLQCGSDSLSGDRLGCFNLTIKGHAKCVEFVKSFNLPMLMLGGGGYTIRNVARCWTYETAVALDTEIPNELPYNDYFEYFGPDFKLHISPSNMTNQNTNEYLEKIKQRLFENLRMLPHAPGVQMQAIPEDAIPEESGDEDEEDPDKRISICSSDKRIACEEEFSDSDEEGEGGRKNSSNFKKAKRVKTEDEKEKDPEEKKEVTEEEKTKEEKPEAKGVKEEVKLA

T1: MYC-tagged mouse LATS1 (mouse) (UniProt Q8BYR2)
T1 sequence: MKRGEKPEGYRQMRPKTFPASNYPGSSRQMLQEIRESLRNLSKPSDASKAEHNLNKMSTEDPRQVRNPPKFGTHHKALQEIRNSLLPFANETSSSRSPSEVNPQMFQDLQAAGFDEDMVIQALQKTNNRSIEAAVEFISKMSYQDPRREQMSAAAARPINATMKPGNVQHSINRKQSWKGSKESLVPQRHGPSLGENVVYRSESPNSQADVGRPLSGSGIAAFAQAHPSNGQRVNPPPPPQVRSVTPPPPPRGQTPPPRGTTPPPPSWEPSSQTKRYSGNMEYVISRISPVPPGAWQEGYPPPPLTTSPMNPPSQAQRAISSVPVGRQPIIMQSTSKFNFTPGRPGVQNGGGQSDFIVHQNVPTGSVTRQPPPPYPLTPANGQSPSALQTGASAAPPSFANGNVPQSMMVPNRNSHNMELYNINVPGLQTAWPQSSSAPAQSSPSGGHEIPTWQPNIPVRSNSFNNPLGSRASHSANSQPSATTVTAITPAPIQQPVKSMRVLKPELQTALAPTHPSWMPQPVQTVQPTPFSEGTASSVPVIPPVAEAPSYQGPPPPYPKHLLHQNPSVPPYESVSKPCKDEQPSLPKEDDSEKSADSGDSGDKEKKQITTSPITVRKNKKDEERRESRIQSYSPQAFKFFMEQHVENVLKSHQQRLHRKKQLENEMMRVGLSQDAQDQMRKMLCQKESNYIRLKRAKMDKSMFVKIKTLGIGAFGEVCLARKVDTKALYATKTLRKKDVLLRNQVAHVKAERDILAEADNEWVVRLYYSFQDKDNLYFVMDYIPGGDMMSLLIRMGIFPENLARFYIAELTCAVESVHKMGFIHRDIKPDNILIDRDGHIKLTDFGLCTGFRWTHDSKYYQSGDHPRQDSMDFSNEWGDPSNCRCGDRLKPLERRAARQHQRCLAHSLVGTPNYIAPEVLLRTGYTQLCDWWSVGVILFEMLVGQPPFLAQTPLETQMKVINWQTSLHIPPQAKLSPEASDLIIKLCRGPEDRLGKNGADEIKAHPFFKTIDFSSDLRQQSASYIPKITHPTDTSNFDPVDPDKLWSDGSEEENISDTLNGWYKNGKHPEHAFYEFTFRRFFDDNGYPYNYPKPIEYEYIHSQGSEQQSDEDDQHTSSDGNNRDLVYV


What was measured:
[1] = target: T1, MYC-tagged mouse LATS1 (mouse); assay: co-IP; Lats1-CKO PyMT cells stably transduced with MYC-tagged mouse Lats1 or vector; immunoprecipitation with antibodies against MYC-tag (9E10) or LATS1, Western blot; NP-40 lysis buffer (50 mM Tris-HCl pH 8.0, 150 mM NaCl, 1.0% NP-40), Protein A Dynabeads, 4 h at 4 °C
[2] = target: endogenous NCOR1 (mouse PyMT cells) (mouse (endogenous in PyMT cells)) (UniProt Q60974); assay: co-IP; endogenous proteins, WT PyMT cells (expressing LATS1), Fig. S5d; NP-40 lysis buffer, Protein A Dynabeads, 4 h at 4 °C
[3] = target: endogenous NCOR1 (mouse PyMT cells) (mouse (endogenous in PyMT cells)) (UniProt Q60974); assay: proximity ligation; PyMT cells, fixed (4% PFA) and permeabilised (0.1% Triton); DuoLink In Situ PLA with antibodies against GFP and NCOR1

Row | binding [1] | Molecule | also measured
1 | binds | HDAC1 (mouse PyMT cells, endogenous) (from UniProt O09106 1-482) (enzyme) | 
2 | binds | endogenous NCOR1 (mouse PyMT cells) (from UniProt Q60974 1-2453) | 
3 |  | endogenous LATS1 (mouse WT PyMT cells) (protein, UniProt Q8BYR2 1-1129) MKRGEKPEGYRQMRPKTFPASNYPGSSRQMLQEIRESLRNLSKPSDASKAEHNLNKMSTEDPRQVRNPPKFGTHHKALQEIRNSLLPFANETSSSRSPSEVNPQMFQDLQAAGFDEDMVIQALQKTNNRSIEAAVEFISKMSYQDPRREQMSAAAARPINATMKPGNVQHSINRKQSWKGSKESLVPQRHGPSLGENVVYRSESPNSQADVGRPLSGSGIAAFAQAHPSNGQRVNPPPPPQVRSVTPPPPPRGQTPPPRGTTPPPPSWEPSSQTKRYSGNMEYVISRISPVPPGAWQEGYPPPPLTTSPMNPPSQAQRAISSVPVGRQPIIMQSTSKFNFTPGRPGVQNGGGQSDFIVHQNVPTGSVTRQPPPPYPLTPANGQSPSALQTGASAAPPSFANGNVPQSMMVPNRNSHNMELYNINVPGLQTAWPQSSSAPAQSSPSGGHEIPTWQPNIPVRSNSFNNPLGSRASHSANSQPSATTVTAITPAPIQQPVKSMRVLKPELQTALAPTHPSWMPQPVQTVQPTPFSEGTASSVPVIPPVAEAPSYQGPPPPYPKHLLHQNPSVPPYESVSKPCKDEQPSLPKEDDSEKSADSGDSGDKEKKQITTSPITVRKNKKDEERRESRIQSYSPQAFKFFMEQHVENVLKSHQQRLHRKKQLENEMMRVGLSQDAQDQMRKMLCQKESNYIRLKRAKMDKSMFVKIKTLGIGAFGEVCLARKVDTKALYATKTLRKKDVLLRNQVAHVKAERDILAEADNEWVVRLYYSFQDKDNLYFVMDYIPGGDMMSLLIRMGIFPENLARFYIAELTCAVESVHKMGFIHRDIKPDNILIDRDGHIKLTDFGLCTGFRWTHDSKYYQSGDHPRQDSMDFSNEWGDPSNCRCGDRLKPLERRAARQHQRCLAHSLVGTPNYIAPEVLLRTGYTQLCDWWSVGVILFEMLVGQPPFLAQTPLETQMKVINWQTSLHIPPQAKLSPEASDLIIKLCRGPEDRLGKNGADEIKAHPFFKTIDFSSDLRQQSASYIPKITHPTDTSNFDPVDPDKLWSDGSEEENISDTLNGWYKNGKHPEHAFYEFTFRRFFDDNGYPYNYPKPIEYEYIHSQGSEQQSDEDDQHTSSDGNNRDLVYV | binding [2]: binds weakly
4 |  | GFP-tagged mouse LATS1 (in PyMT cells) (protein, UniProt Q8BYR2 1-1129) MKRGEKPEGYRQMRPKTFPASNYPGSSRQMLQEIRESLRNLSKPSDASKAEHNLNKMSTEDPRQVRNPPKFGTHHKALQEIRNSLLPFANETSSSRSPSEVNPQMFQDLQAAGFDEDMVIQALQKTNNRSIEAAVEFISKMSYQDPRREQMSAAAARPINATMKPGNVQHSINRKQSWKGSKESLVPQRHGPSLGENVVYRSESPNSQADVGRPLSGSGIAAFAQAHPSNGQRVNPPPPPQVRSVTPPPPPRGQTPPPRGTTPPPPSWEPSSQTKRYSGNMEYVISRISPVPPGAWQEGYPPPPLTTSPMNPPSQAQRAISSVPVGRQPIIMQSTSKFNFTPGRPGVQNGGGQSDFIVHQNVPTGSVTRQPPPPYPLTPANGQSPSALQTGASAAPPSFANGNVPQSMMVPNRNSHNMELYNINVPGLQTAWPQSSSAPAQSSPSGGHEIPTWQPNIPVRSNSFNNPLGSRASHSANSQPSATTVTAITPAPIQQPVKSMRVLKPELQTALAPTHPSWMPQPVQTVQPTPFSEGTASSVPVIPPVAEAPSYQGPPPPYPKHLLHQNPSVPPYESVSKPCKDEQPSLPKEDDSEKSADSGDSGDKEKKQITTSPITVRKNKKDEERRESRIQSYSPQAFKFFMEQHVENVLKSHQQRLHRKKQLENEMMRVGLSQDAQDQMRKMLCQKESNYIRLKRAKMDKSMFVKIKTLGIGAFGEVCLARKVDTKALYATKTLRKKDVLLRNQVAHVKAERDILAEADNEWVVRLYYSFQDKDNLYFVMDYIPGGDMMSLLIRMGIFPENLARFYIAELTCAVESVHKMGFIHRDIKPDNILIDRDGHIKLTDFGLCTGFRWTHDSKYYQSGDHPRQDSMDFSNEWGDPSNCRCGDRLKPLERRAARQHQRCLAHSLVGTPNYIAPEVLLRTGYTQLCDWWSVGVILFEMLVGQPPFLAQTPLETQMKVINWQTSLHIPPQAKLSPEASDLIIKLCRGPEDRLGKNGADEIKAHPFFKTIDFSSDLRQQSASYIPKITHPTDTSNFDPVDPDKLWSDGSEEENISDTLNGWYKNGKHPEHAFYEFTFRRFFDDNGYPYNYPKPIEYEYIHSQGSEQQSDEDDQHTSSDGNNRDLVYV | binding [3]: binds
